These are yes or no findings as the source states them, for the method shown. Some results given as binding are weak or reduced against the parent protein; the word gives no strength.
Key:
[1] = target: His-tagged Luciferase (heat-aggregated on the sensor) (firefly) [luciferase: P08659]; experiment: BLI; His-tagged Luciferase heat-aggregated (44 °C) on a Ni-NTA sensor with 0 to the indicated concentrations of As(III) at the aggregation step only; Ssa1 (1.5 μM) and Ydj1 (1 μM) together in solution; buffer A (25 mM Hepes-KOH pH 8, 15 mM magnesium acetate, 75 mM KCl) with 10 mM ATP and 2 mM DTT; 25 °C; both purified
[2] = target: His-tagged Luciferase (heat-aggregated on the sensor) (firefly) [luciferase: P08659]; experiment: BLI; sequential binding to sensor-bound aggregates: Ydj1 followed by Ssa1 (Fig. S3B); Ydj1-Ssa1 followed by Hsp104 (Fig. S3C); aggregates formed with or without As(III); both purified

Protein sequences, listed by entry. Tags and fused reporters are not part of them.
UniProt P25491: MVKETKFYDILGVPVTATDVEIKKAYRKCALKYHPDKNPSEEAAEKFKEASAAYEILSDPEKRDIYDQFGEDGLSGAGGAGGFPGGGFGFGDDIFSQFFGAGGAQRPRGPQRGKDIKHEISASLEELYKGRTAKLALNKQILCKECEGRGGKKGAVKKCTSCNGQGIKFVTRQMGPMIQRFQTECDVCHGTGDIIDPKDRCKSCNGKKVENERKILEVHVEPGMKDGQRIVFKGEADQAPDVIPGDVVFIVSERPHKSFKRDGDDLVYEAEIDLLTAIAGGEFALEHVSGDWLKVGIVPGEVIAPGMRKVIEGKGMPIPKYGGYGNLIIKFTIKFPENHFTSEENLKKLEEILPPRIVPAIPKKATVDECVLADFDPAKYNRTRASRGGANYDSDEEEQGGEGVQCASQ

binding [1]: binds
binding [2]: binds
Substance: Ydj1 (from UniProt P25491 1-409)
